Results are given in words; binding and its absence hold for the method and conditions named. Some binding calls cover weakened binding; strength is not graded here.

Amino acid sequences for entries named in this document (tags omitted). A change or cut given only in a name is not applied to a line headed by its entry. Chains listed by the source or under a name are the forms on record and can include a tag or linker. Residues count along the entry.
GST-EZH2(501–751) (Q15910, residues 496-746): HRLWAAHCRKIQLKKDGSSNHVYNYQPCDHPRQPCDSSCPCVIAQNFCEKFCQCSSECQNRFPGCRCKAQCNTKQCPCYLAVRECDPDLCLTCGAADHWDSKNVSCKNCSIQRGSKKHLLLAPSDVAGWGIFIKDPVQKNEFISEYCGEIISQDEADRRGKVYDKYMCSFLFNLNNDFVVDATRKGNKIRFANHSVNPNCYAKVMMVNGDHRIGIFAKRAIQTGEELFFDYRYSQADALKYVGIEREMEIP
GST-EZH2 (Q15910, form named): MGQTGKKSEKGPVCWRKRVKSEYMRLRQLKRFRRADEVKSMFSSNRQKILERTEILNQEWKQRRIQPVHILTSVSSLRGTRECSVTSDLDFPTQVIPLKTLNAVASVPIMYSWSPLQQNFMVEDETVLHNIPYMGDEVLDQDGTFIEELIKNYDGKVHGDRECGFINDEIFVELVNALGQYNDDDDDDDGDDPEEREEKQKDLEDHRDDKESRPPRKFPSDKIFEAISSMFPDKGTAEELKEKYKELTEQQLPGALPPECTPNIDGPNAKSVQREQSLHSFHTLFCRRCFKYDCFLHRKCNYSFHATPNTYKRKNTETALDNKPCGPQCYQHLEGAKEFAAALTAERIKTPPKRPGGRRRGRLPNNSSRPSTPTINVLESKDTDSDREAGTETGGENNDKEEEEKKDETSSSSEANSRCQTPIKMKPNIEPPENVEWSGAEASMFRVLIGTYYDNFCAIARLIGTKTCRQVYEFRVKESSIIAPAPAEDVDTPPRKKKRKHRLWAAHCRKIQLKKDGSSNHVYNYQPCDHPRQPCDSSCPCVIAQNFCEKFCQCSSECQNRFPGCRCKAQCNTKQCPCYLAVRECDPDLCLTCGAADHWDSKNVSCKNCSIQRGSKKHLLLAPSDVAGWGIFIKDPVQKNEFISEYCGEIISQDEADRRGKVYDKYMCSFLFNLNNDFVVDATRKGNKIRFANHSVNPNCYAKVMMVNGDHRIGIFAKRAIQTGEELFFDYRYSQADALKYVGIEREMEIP
GST-EZH2(1–500) (Q15910, form named): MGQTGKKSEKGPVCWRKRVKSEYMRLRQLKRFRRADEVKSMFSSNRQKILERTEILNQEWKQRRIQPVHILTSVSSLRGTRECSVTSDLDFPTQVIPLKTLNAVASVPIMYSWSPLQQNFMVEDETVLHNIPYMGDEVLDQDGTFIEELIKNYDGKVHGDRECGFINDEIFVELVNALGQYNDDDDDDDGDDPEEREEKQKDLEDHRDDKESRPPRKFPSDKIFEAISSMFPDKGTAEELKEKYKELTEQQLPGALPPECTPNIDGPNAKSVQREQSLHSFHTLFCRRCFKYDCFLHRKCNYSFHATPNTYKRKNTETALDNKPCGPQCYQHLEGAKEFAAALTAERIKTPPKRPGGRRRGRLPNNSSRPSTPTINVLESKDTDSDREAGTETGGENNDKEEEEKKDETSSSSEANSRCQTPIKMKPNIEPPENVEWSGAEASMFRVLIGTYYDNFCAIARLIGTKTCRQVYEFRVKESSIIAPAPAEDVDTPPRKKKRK
UniProt P15941, residues 1182-1255: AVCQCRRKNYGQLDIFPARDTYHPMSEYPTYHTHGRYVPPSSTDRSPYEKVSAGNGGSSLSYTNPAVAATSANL

Common to all, as to assay: pull-down; GST fusion proteins bound to glutathione beads incubated with purified MUC1-CD proteins, washed; adsorbates immunoblotted with anti-MUC1-C cytoplasmic domain antibodies CD1 or CT2; both purified
On the technique in general: Immunoblotting shows a protein as a band on a membrane.

In assay [1] the target is GST-EZH2 (human) (UniProt Q15910).
Assay [2] has as its target GST-EZH2(1–500) (human) (UniProt Q15910).
The target in assay [3] is GST-EZH2(501–751) (human) (UniProt Q15910).

In the case of “MUC1-C cytoplasmic domain (from UniProt P15941 1182-1255) (domain or fragment)”, the binding entry in assay [1] is “binds”; in assay [2], “no binding”; in assay [3], “binds”.
